Laboratory results: PubChem BioAssay AID1259405 (NCATS, 2018)
Test: 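Mouse-designed siRNAs used to find CHO productivity engineering targets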 (primary screen). System: Chinese hamster CHO-K1 ovary cells with stable secreted eGFP expression. Reagent: single siRNA against mouse genes, 0.8 pmol siRNA per well (2 µl of 400 nM stock). Time to read-out: 3 days. Detection: 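Percent of the per-plate non-targeting control median for intracellular GFP per well by laser scanning cytometry and for cell viability by ATP luminescence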. Scale: GFP, % of control: higher = more GFP per well, higher productivity; viability (ATP), % of control: higher = more viable cells (more ATP). Hit rule: 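Called active when intracellular GFP, relative to negative control, is at or above 120%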.
In all, the deposit lists about 50,000 reagents; below is a part drawn at random. Of all reagents, about 4,000 (8%) were called active. 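Mouse siRNA library applied to hamster cells; one well for each siRNA.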 Unmarked entries are inactive. Reagents against one gene are numbered here.

gene | reagent | GFP, % of control | viability (ATP), % of control
Gabarap (gamma-aminobutyric acid receptor associated protein) | 1 | 66.2 | 80.3
Gabarap (gamma-aminobutyric acid receptor associated protein) | 2 | 63.5 | 89.8
Zfp9 (zinc finger protein 9) | 1 | 38.6 | 77.5
Zfp9 (zinc finger protein 9) | 2 | 102 | 90.5
Rrp9 | 1 | 88.4 | 88.6
Rrp9 | 2 | 153 (active) | 66.5
Rrp9 | 3 | 61.2 | 80.7
Sh2b2 (SH2B adaptor protein 2) | 1 | 167 (active) | 83.3
Sh2b2 (SH2B adaptor protein 2) | 2 | 80.6 | 77.9
Sh2b2 (SH2B adaptor protein 2) | 3 | 64 | 47.8
Ly6e (lymphocyte antigen 6 family member E) | 1 | 84 | 61.5
Ly6e (lymphocyte antigen 6 family member E) | 2 | 58.3 | 51.6
Ly6e (lymphocyte antigen 6 family member E) | 3 | 90.5 | 45.8
Amz2 (archaelysin family metallopeptidase 2) | 1 | 161 (active) | 120
Amz2 (archaelysin family metallopeptidase 2) | 2 | 46.1 | 52.2
Amz2 (archaelysin family metallopeptidase 2) | 3 | 84.6 | 77.3
Smurf2 (SMAD specific E3 ubiquitin protein ligase 2) | 1 | 78.8 | 81.7
Smurf2 (SMAD specific E3 ubiquitin protein ligase 2) | 2 | 101 | 71.2
Smurf2 (SMAD specific E3 ubiquitin protein ligase 2) | 3 | 74.7 | 107
Dennd5b (DENN domain containing 5B) | 1 | 64.8 | 80.1
Dennd5b (DENN domain containing 5B) | 2 | 67.3 | 92.9
Dennd5b (DENN domain containing 5B) | 3 | 80.4 | 99.3
Sdsl (serine dehydratase-like) | 1 | 92 | 92.6
Sdsl (serine dehydratase-like) | 2 | 98.2 | 87.3
Sorbs2 (sorbin and SH3 domain containing 2) | 1 | 56.9 | 70
Sorbs2 (sorbin and SH3 domain containing 2) | 2 | 60.9 | 69.1
Sorbs2 (sorbin and SH3 domain containing 2) | 3 | 89.3 | 69.8
Sash1 (SAM and SH3 domain containing 1) | 1 | 87.3 | 80
Sash1 (SAM and SH3 domain containing 1) | 2 | 106 | 81.5
Sash1 (SAM and SH3 domain containing 1) | 3 | 85.2 | 81.6
C1qa (complement component 1, q subcomponent, alpha polypeptide) | 1 | 58 | 59.8
C1qa (complement component 1, q subcomponent, alpha polypeptide) | 2 | 104 | 54.8
C1qa (complement component 1, q subcomponent, alpha polypeptide) | 3 | 83.1 | 78.5
Ski (ski proto-oncogene) | 1 | 64 | 72.2
Ski (ski proto-oncogene) | 2 | 98 | 99.3
Ski (ski proto-oncogene) | 3 | 87.5 | 120

Ordered by “GFP, % of control” (high to low): some entries from above
gene | reagent | GFP, % of control | viability (ATP), % of control
C1qa (complement component 1, q subcomponent, alpha polypeptide) | 2 | 104 | 54.8
Ski (ski proto-oncogene) | 2 | 98 | 99.3
Ski (ski proto-oncogene) | 3 | 87.5 | 120
C1qa (complement component 1, q subcomponent, alpha polypeptide) | 3 | 83.1 | 78.5
Ski (ski proto-oncogene) | 1 | 64 | 72.2
